Data: article doi:10.1101/2024.02.14.580382
These are yes or no findings as the source states them, for the method shown. Binding seen in cells or lysates may run through a third protein. Some binding calls cover weakened binding; strength is not graded here. Sequences can lack the tags named with a protein.

Experiments:
Assay in all cases: pull-down
[1] = target: T1, GFP-DFCP1 (Double FYVE Domain Containing Protein 1), wild type (UniProt Q9HBF4)
T1 sequence: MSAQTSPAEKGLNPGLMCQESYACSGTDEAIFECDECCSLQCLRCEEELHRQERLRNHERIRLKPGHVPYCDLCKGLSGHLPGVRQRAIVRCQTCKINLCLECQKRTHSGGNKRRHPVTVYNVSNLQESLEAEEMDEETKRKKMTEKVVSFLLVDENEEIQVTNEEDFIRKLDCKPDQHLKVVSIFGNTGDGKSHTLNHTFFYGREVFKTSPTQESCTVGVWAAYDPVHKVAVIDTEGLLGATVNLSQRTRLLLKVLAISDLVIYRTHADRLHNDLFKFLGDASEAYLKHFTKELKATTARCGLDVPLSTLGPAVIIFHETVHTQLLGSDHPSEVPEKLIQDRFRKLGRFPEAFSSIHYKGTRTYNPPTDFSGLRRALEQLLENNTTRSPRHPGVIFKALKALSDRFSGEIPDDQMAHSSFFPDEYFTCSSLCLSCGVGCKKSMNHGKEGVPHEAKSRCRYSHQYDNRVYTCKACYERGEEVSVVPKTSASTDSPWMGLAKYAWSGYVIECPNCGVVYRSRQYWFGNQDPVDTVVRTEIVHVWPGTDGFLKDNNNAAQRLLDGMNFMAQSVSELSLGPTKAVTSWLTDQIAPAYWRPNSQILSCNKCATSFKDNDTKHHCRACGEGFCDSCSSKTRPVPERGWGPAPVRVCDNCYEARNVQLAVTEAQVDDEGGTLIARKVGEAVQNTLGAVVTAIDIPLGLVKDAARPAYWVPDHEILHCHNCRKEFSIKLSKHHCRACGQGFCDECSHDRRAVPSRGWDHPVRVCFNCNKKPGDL

[2] = target: T2, GFP-DFCP1^KA (K193A, nucleotide-binding mutant of the NTPase domain) (UniProt Q9HBF4)
T2 sequence: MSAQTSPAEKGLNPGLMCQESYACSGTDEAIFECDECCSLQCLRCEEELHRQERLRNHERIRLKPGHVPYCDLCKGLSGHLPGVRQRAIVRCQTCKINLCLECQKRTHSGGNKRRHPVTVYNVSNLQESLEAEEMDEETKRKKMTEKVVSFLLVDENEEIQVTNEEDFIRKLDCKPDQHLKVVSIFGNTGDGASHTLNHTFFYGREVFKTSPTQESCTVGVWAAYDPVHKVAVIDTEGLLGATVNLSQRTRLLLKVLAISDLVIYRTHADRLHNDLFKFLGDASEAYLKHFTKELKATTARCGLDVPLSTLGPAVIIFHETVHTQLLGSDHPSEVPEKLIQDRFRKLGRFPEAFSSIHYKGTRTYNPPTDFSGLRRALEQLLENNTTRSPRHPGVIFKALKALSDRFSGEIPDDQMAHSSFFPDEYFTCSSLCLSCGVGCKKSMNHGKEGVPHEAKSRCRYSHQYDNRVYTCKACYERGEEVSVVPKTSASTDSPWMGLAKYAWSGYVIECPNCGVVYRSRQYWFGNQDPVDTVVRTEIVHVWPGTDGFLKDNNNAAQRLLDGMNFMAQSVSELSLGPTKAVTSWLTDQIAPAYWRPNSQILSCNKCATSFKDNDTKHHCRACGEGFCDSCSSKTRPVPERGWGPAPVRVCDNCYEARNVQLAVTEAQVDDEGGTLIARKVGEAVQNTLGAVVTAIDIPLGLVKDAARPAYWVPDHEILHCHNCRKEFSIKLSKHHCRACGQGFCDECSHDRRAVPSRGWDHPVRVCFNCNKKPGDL

[3] = target: T3, GFP-DFCP1^RQ (R266Q, NTPase domain mutant) (UniProt Q9HBF4)
T3 sequence: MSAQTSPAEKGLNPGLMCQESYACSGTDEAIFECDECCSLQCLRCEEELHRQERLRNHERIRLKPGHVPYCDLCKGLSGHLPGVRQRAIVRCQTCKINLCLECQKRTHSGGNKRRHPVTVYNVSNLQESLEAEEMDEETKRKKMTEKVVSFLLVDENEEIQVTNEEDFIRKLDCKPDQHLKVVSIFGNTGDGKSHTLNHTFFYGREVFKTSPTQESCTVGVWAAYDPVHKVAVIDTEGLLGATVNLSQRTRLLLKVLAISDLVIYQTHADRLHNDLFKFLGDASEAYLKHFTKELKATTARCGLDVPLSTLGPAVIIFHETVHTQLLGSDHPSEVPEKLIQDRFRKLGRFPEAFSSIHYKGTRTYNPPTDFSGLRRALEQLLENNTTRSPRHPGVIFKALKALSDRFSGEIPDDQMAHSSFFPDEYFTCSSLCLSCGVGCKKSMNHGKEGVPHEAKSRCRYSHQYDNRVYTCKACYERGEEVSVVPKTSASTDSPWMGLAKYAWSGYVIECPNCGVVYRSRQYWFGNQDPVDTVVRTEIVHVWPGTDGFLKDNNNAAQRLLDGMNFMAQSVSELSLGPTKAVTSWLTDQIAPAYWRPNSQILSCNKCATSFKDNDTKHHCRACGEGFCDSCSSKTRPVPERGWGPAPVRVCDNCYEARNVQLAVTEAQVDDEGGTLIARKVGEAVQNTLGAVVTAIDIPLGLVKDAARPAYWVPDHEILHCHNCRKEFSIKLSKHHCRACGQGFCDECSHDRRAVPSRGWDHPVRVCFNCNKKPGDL

[4] = target: T4, GFP-DFCP1^1-415 (N-terminal 415 residues, include the NTPase domain) (UniProt Q9HBF4)
T4 sequence: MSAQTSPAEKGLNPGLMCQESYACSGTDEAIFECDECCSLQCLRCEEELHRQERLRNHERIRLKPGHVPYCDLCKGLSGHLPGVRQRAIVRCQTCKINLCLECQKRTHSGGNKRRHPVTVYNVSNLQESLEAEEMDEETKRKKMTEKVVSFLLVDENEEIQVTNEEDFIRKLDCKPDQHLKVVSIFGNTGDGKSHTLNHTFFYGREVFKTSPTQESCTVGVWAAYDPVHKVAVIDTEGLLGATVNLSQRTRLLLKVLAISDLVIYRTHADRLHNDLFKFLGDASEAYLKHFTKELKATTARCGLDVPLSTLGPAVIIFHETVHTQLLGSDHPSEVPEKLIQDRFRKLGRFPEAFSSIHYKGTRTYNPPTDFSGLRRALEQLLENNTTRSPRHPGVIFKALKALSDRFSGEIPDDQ

[5] = target: T5, DFCP1^554-777 (contains the C-terminal FYVE domains) (UniProt Q9HBF4)
T5 sequence: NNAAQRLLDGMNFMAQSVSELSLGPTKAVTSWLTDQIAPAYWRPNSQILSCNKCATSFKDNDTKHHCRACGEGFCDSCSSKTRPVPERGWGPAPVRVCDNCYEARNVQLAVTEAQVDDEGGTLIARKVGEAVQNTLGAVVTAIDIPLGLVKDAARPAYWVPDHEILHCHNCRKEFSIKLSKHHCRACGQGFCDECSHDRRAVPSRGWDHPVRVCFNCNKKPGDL

[6] = target: T6, GFP-DFCP1^415-777 (contains the C-terminal FYVE domains) (UniProt Q9HBF4)
T6 sequence: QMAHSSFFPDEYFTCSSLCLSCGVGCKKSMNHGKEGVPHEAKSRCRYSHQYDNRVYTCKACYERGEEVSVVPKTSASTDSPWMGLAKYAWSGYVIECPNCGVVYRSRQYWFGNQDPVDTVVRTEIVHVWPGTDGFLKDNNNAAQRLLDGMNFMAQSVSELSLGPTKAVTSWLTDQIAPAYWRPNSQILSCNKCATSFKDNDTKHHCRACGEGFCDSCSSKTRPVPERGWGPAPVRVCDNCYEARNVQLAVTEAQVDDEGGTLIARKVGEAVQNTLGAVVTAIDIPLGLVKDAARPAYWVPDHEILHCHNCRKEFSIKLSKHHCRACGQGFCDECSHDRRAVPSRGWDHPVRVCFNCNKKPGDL

B1: FLAG-ATGL (human Adipose Triglyceride Lipase, full length) (enzyme, UniProt Q96AD5 1-504)
chain: MFPREKTWNISFAGCGFLGVYYVGVASCLREHAPFLVANATHIYGASAGALTATALVTGVCLGEAGAKFIEVSKEARKRFLGPLHPSFNLVKIIRSFLLKVLPADSHEHASGRLGISLTRVSDGENVIISHFNSKDELIQANVCSGFIPVYCGLIPPSLQGVRYVDGGISDNLPLYELKNTITVSPFSGESDICPQDSSTNIHELRVTNTSIQFNLRNLYRLSKALFPPEPLVLREMCKQGYRDGLRFLQRNGLLNRPNPLLALPPARPHGPEDKDQAVESAQAEDYSQLPGEDHILEHLPARLNEALLEACVEPTDLLTTLSNMLPVRLATAMMVPYTLPLESALSFTIRLLEWLPDVPEDIRWMKEQTGSICQYLVMRAKRKLGRHLPSRLPEQVELRRVQSLPSVPLSCAAYREALPGWMRNNLSLGDALAKWEECQRQLLLGLFCTNVAFPPEALRMRAPADPAPAPADPASPQHQLAGPAPLLSTPAPEARPVIGALGL
[1]
  binding: binds

B2: MBP-ATGL (1-254), N-terminal truncation of human ATGL with the patatin-like lipase domain (domain or fragment, UniProt Q96AD5 1-254)
chain: MFPREKTWNISFAGCGFLGVYYVGVASCLREHAPFLVANATHIYGASAGALTATALVTGVCLGEAGAKFIEVSKEARKRFLGPLHPSFNLVKIIRSFLLKVLPADSHEHASGRLGISLTRVSDGENVIISHFNSKDELIQANVCSGFIPVYCGLIPPSLQGVRYVDGGISDNLPLYELKNTITVSPFSGESDICPQDSSTNIHELRVTNTSIQFNLRNLYRLSKALFPPEPLVLREMCKQGYRDGLRFLQRNGL
[2]
  binding: binds
[3]
  binding: binds
[4]
  binding: no binding
[1]
  binding: binds
[5]
  binding: binds
[6]
  binding: binds
